Measured values from the supplement of paper PMC6445147.
This is a noisy data set.

B1: human tRNA-Pro; a variant is named by its letters at N, in order (parent)
chain: GGCTCGTTGGTCTAGNGGTATGATTCTCGCTTAGGGTGCGAGAGGTCCCGGGTTCNNATCCCGGACGAGCCC

Variants of: B1
Assay: tRNA 3' processing efficiency (processed reads / all reads, maximum-likelihood estimate) (fraction); higher = more efficient 3' processing
Conditions: HEK293T; construct: no Pol-II promoter ((-)CMV library)

Row | Variant | tRNA 3' processing efficiency
1 | GGCTCGTGGGTCTAGGCGATTGATTCTCGCTTAGGGTGCGAGAGGTCCCGGGTTCAACTCCCGGACGAGCCC | 0.2
2 | GGCTCGTTGGTCTAGGGGACTGATTCTCGCTTAGGGTGCGAGAGGTCCCGGGTACAAACCCCGGACGAGCCC | 0.57
3 | GGCTCGTTGGTCTAGGGGCATGATTCTCGCTTAGGGTGCGAGAGGTCCTGGGTTCAAAGCCCGGACGAGCCC | 0.43
4 | GGCTCGTTGGTCTAGAGGGATGATTCTCGCTTAGGGTGCGAGAGGTCCCGGGATCAAGTCCCGGACGAGCCC | 0.44
5 | GGCTCGTTGGTCTAGAGGCATGATTCTCGCTTAGGGTGCGAGAGGTCCCGGGGTCAAATCCCGGACGAGCCC | 0.38
6 | GGCTCGTTGGTCCAGGGGTATGATTCTCGCTTAGGGTGCGAGAGGTCCCGGGCTCAAATCCCGGACGAGCCC | 0.33
7 | GGCTCGTTGGTCTAGAGGATTGATTCTCGCTTAGGGTGCGAGAGGTCCCGGGTTCAATTCCCGGACGAGCCC | 0.43
8 | GGCTCGTTGGTCTAGGGGGATGATTCTCGCTTAGGGTGCGAGAGGTCCCGGGATCAAGCCCCGGACGAGCCC | 0.2
9 | GGCTCGTTGGTCTAGGGGGATGATTCTCGCTTAGGGTGCGAGAGGTCCCGGGATCAAGACCCGGACGAGCCC | 0.2
10 | GGCTCGTTGGTCTAGGGGGCTGATTCTCGCTTAGGGTGCGAGAGGTCCCGGTTTCAAATCCCGGACGAGCCC | 0.17
11 | GGCTCGTTGGTCCGGGGGTATGATTCTCGCTTAGGGTGCGAGAGGTCCCGGGTTCAAGCCCCGGACGAGCCC | 0.38
12 | GGCTCGTGGGTCTAGGGACATGATTCTCGCTTAGGGTGCGAGAGGTCCCGGGTTCAAACCCCGGACGAGCCC | 0.1
13 | GGCTCGTTGGTCTAGAGGTATGATTCTCGCTTAGGGTGCGAGAGGTCCCGGGCTCAAAGCCCGGACGAGCCC | 0.25
14 | GGCTCGTGGGTCTAGGGATCTGATTCTCGCTTAGGGTGCGAGAGGTCCCGGGTTCAATTCCCGGACGAGCCC | 0.25
15 | GGCTCGTTGGTCTAGTGGAATGATTCTCGCTTAGGGTGCGAGAGGTCCCGGGATCAACTCCCGGACGAGCCC | 0.25
16 | GGCTCGTTGGTCTAGGGGATTGATTCTCGCTTAGGGTGCGAGAGGTCCCGGGATCAAAGCCCGGACGAGCCC | 0.14
17 | GGCTCGTTGGTCTAGGGGAATGATTCTCGCTTAGGGTGCGAGAGGTCCCGAGTTCAAATCCCGGACGAGCCC | 0.2
18 | GGCTCGTTGGTCTAGGGGATTGATTCTCGCTTAGGGTGCGAGAGGTCCCGGGATCAAGTCCCGGACGAGCCC | 0.43
19 | GGCTCGTTGGTCTAGCGGAATGATTCTCGCTTAGGGTGCGAGAGGTCCCGAGTTCAATTCCCGGACGAGCCC | 0.27
20 | GGCTCGTGGGTCTAGGAGTTTGATTCTCGCTTAGGGTGCGAGAGGTCCCGGGTTCAATTCCCGGACGAGCCC | 0.25
21 | GGCTCGTTGGTCTAGTGGGATGATTCTCGCTTAGGGTGCGAGAGGTCCCGGGTTCAATGCCCGGACGAGCCC | 0.2
22 | GGCTCGTTGGTCTAGAGGACTGATTCTCGCTTAGGGTGCGAGAGGTCCCGGGTTCAAAACCCGGACGAGCCC | 0.43
23 | GGCTCGTTGGTCTAGCGGTATGATTCTCGCTTAGGGCGCGAGAGGTCCCGGGTACAAATCCCGGACGAGCCC | 0.25
24 | GGCTCGTTGGTCTAGCGGGATGATTCTCGCTTAGGGTGCGAGAGGTCCCGGGTTCAAACCCCGGACGAGCCC | 0.4
25 | GGCTCGTTGGTCTAGGGGGATGTTTCTCGCTTAGGGTGCGAGAGGTCCCGGGTTCAAACCCCGGACGAGCCC | 0.25

Reformatted as a markdown table: entries from further up.

| Row | Variant | tRNA 3' processing efficiency |
| --- | --- | --- |
| 4 | GGCTCGTTGGTCTAGAGGGATGATTCTCGCTTAGGGTGCGAGAGGTCCCGGGATCAAGTCCCGGACGAGCCC | 0.44 |
| 7 | GGCTCGTTGGTCTAGAGGATTGATTCTCGCTTAGGGTGCGAGAGGTCCCGGGTTCAATTCCCGGACGAGCCC | 0.43 |
| 19 | GGCTCGTTGGTCTAGCGGAATGATTCTCGCTTAGGGTGCGAGAGGTCCCGAGTTCAATTCCCGGACGAGCCC | 0.27 |

Next entries.

Row | Variant | tRNA 3' processing efficiency
26 | GGCTCGTTGGTCTAGCGGTATGATTCTCGCTTAGGGTGCGAGAGGTCCCGGGATCAAGGCCCGGACGAGCCC | 0.33
27 | GGCTCGTGGGTCTAGTGGTATGATTCTCGCTTAGGGTGCGAGAGGTCCCGGGATCAAGACCCGGACGAGCCC | 0.17
28 | GGCTCGTTGGTCTAGAGGTATGATTCTCGCTTAGGGTGCGAGAGGTCCCGGGATCAAAGCCCGGACGAGCCC | 0.25
29 | GGCTCGTTGGTCTAGGGGCCTGATTCTCGCTTAGGGTGCGAGAGGTCCCGGGTTCAAGACCCGGACGAGCCC | 0.5
30 | GGCTCGTTGGTCTAGAGGGTTGATTCTCGCTTAGGGTGCGAGAGGTCCCGGGTTCAAAGCCCGGACGAGCCC | 0.17
31 | GGCTCGTGGGTCTACCGGGATGATTCTCGCTTAGGGTGCGAGAGGTCCCGGGTTCAAATCCCGGACGAGCCC | 0.5
32 | GGCTCGTTGGTCTAGTGGAATGATTCTCGCTTAGGGTGCGAGAGGTCCCGGGTTAAAAGCCCGGACGAGCCC | 0.25
33 | GGCTCGTTGGTCTAGTGGAATGATTCTCGCTTGGGGTGCGAGAGGTCCCGGGTTCAATTCCCGGACGAGCCC | 0.57
34 | GGCTCGTTGGTCTAGGGGAATGATTCTCGCTTAGGGTGCGAGAGGTCCCGAGTTCAATTCCCGGACGAGCCC | 0.25
35 | GGCTCGTTGGTCTAGAGGCATGATTCTCGCTTAGGGTGCGAGAGGTCCCGGGTTCAATACCCGGACGAGCCC | 0.17
36 | GGCTCGTGGGTCTAGGGGCATGATTCTCGCTTAGGGTGCGAGAGGTCCCGGGTTCAAACCCCGGACGAGCCC | 0.5
37 | GGCTCGTTGGTCTAGCGGTATGATTCTCGCTTAGGGTGCGAGAGGTCCCGGGCTCAACACCCGGACGAGCCC | 0.29
38 | GGCTCGTTGGTCTAGAGGGCTGATTCTCGCTTAGGGTGCGAGAGGTCCCGGGCTCAAATCCCGGACGAGCCC | 0.4
39 | GGCTCGTTGGTCTAGGGGACTGATTCTCGCTTAGGGTGCGAGAGGTCCCGGGATCAAGTCCCGGACGAGCCC | 0.02
40 | GGCTCGTTGGTCTAGTGGAATGATTCTCGCTTAGGGTGCGAGAGGTCCCGGGTTCAACGCCCGGACGAGCCC | 0.4
41 | GGCTCGTTGGTCTAGGGGATTGATTCTCGCTTAGGGTGCGAGAGGTCCCGAGTTCAACTCCCGGACGAGCCC | 0.1
42 | GGCTCGTTGGTCTAGCGGAGTGATTCTCGCTTAGGGTGCGAGAGGTCCCGGGGTCAAATCCCGGACGAGCCC | 0.62
43 | GGCTCGTTGGTCTAGGGGATTGATTCTCGCTTAGGGTGCGAGAGGTCCCGGGTTCAAGACCCGGACGAGCCC | 0.33
44 | GGCTCGTGGGTCTAGAGGGATGATTCTCGCTTGGGGTGCGAGAGGTCCCGGGTTCAAGTCCCGGACGAGCCC | 0.57
45 | GGCTCGTTGGTCTAGGGGATTGATTCTCGCTTAGGGTGCGAGAGGTCCCGGGGTCAATTCCCGGACGAGCCC | 0.25
46 | GGCTCGTTGGTCTAGGGGTATGATTCCCGCTTAGGGTGCGAGAGGTCCCGGGATCAAATCCCGGACGAGCCC | 0.4
47 | GGCTCGTTGGTCTAGAGGAATGATTCTCGCTTAGGGTGCGAGAGGTCCCGGGTTCAACACCCGGACGAGCCC | 0.25
48 | GGCTCGTTGGTCTAGAGGTATGATTCTCGCTTAGGGTGCGAGAGGTCCCGGGTCTAAGTCCCGGACGAGCCC | 0.33
49 | GGCTCGTTGGTCTAGTGGATTGATTCTCGCTTAGGGTGCGAGAGGTCCCTGGTTCAAGTCCCGGACGAGCCC | 0.38
50 | GGCTCGTTGGTCTAGGGGCTTGATTCTCGCTTAGGGTGCGAGAGGTCCCGGGTTCAAAGCCCGGACGAGCCC | 0.5

Reprinted at random: two entries already listed, in no set order.
Row | Variant | tRNA 3' processing efficiency
14 | GGCTCGTGGGTCTAGGGATCTGATTCTCGCTTAGGGTGCGAGAGGTCCCGGGTTCAATTCCCGGACGAGCCC | 0.25
19 | GGCTCGTTGGTCTAGCGGAATGATTCTCGCTTAGGGTGCGAGAGGTCCCGAGTTCAATTCCCGGACGAGCCC | 0.27

The listing continues:

Row | Variant | tRNA 3' processing efficiency
51 | GGCTCGTTGGTCTAGAGGGATGATTCTCGCTTAGGGTGCGAGAGGTCCCGGGTTTAAAACCCGGACGAGCCC | 0.33
52 | GGCTCGTTGGTCTAGCGGGATGATTCTCGCTTAGGGTGCGAGAGGTCCCGGGTTCAAGACCCGGACGAGCCC | 0.15
53 | GGCTCGTTGGTCCAGGGGTATGATTCTCGCTTAGGGTGCGAGAGGTCCCGGGTTCAAACCCCGGACGAGCCC | 0.4
54 | GGCTCGTGGGTCTAGAACTATGATTCTCGCTTAGGGTGCGAGAGGTCCCGGGATCAAATCCCGGACGAGCCC | 0.17
55 | GGCTCGTGGGTCTAGGAATGTGATTCTCGCTTAGGGTGCGAGAGGTCCCGGGTTCAAATCCCGGACGAGCCC | 0.62
56 | GGCTCGTTGGTCTAGCGGACTGATTCTCGCTTAGGGTGCGAGAGGTCCCGGGTACAAAGCCCGGACGAGCCC | 0.43
57 | GGCTCGTTGGTCTAGGGGCATGATTCTCGCTTAGGGTGCGAGAGGTCCCGGGTTCAAATCCCGAACGAGCCC | 0.29
58 | GGCTCGTTGGTCTAGCGGGATGATTCTCGCTTAGGGTGCGAGAGGTCCCGGGTTTAACTCCCGGACGAGCCC | 0.4
59 | GGCTCGTTGGTCTAGCGGGATGATTCTCGCTTAGGGTGCGAGAGGTCCCGGGATCAAAGCCCGGACGAGCCC | 0.3
60 | GGCTCGTGGGTCTAGTTATATGATTCTCGCTTAGGGTGCGAGAGGTCCCGGGTTCAAAACCCGGACGAGCCC | 0.5
61 | GGCTCGTTGGTCTAGGGGTATGATTCTCGCTTAGGGTGCGAGAGGTCCCGGGTTCAAAGTCCGGACGAGCCC | 0.2
62 | GGCTCGTTGGCCTAGCGGTATGATTCTCGCTTAGGGTGCGAGAGGTCCCGGGTTTAAATCCCGGACGAGCCC | 0.75
63 | GGCTCGTTGGTCTAGCGGGATGATTCTCGCTTAGGGTGCGAGAGGTCCCGGGTTCAATCCCCGGACGAGCCC | 0.14
64 | GGCTCGTGGGTCTACGAGGATGATTCTCGCTTAGGGTGCGAGAGGTCCCGGGTTCAAATCCCGGACGAGCCC | 0.33
65 | GGCTCGTTGGTCTAGGGGAATGATTCTCGCTTAGGGTGCGAGAGGTCCCGGGATCAAGACCCGGACGAGCCC | 0.2
66 | GGCTCGTTGGTCTAGGGGAATGATTCTCGCTTAGGGTGCGAGAGGTCCCGGGATCAAGGCCCGGACGAGCCC | 0.27
67 | GGCTCGTTGGTCTAGGGGGATGATTCTCGCTTAGGGTGCGAGAGGTCCCGGGTACAAGGCCCGGACGAGCCC | 0.4
68 | GGCTCGTTGGTCTAGTGGATTGATTCTCGCTTAGGGTGCGAGAGGTCCCGGGTTTAAATCCCGGACGAGCCC | 0.25
69 | GGCTCGTTGGTCTAGCGGAATGATTCTCGCTTAGGGTGCGAGAGGTCCCGGGGTCAAAGCCCGGACGAGCCC | 0.33
70 | GGCTCGTTGGTCTAGGGGAATGATTCTCGCTTAGGGTGCTAGAGGTCCCGGGTTCAAATCCCGGACGAGCCC | 0.2
71 | GGCTCGTGGGTCTAGGCGTATGATTCTCGCTTAGGGTGCGAGAGGTCCCGGGTTCAAGTTCCGGACGAGCCC | 0.43
72 | GGCTCGTTGGTCTAGAGGGATGATTCTCGCTTAGGGTGCGAGAGGTCCCGGGTTTAAGTCCCGGACGAGCCC | 0.57
73 | GGCTCGTGGGTCTAGGGATATGATTCTCGCTTAGGGTGCGAGAGGTCCCGGGTTCAAGACCCGGACGAGCCC | 0.44
74 | GGCTCGTTGGTCTAGGGGAATGATTCTCGCTTAGGGTGCGAGAGGTCCCGGGTCCAAGTCCCGGACGAGCCC | 0.25
75 | GGCTCGTTGGTCTAGCGGTATGATTCTCGCTTAGGGTGCGAGAGGTCCCGGGATCAAAGCCCGGACGAGCCC | 0.25
